# Library screening results

Sequences of proteins named here, by UniProt entry; tags and fusion partners are left off.
UniProt E9BF75, entry or part of it: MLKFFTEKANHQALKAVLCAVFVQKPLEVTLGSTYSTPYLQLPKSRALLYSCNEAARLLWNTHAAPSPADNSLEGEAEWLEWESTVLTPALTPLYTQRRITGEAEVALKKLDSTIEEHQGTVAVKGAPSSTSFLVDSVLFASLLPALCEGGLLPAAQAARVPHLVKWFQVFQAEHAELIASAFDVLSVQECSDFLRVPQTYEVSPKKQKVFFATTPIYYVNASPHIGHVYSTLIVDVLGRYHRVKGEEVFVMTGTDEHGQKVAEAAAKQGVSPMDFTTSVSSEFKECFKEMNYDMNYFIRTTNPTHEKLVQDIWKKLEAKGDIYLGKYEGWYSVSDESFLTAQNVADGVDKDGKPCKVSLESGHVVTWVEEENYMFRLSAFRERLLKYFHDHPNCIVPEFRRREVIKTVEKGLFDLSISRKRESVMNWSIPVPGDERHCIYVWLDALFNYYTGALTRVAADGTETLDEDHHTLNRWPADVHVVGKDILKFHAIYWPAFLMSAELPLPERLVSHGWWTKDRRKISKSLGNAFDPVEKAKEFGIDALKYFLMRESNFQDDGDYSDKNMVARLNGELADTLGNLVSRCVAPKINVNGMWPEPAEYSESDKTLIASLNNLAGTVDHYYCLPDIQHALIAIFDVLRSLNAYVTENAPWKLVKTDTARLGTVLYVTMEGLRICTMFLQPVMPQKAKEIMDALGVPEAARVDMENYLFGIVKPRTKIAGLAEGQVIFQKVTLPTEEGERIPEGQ

LdMetRS: 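Methionyl-tRNA synthetase (putative), Leishmania donovani (UniProt E9BF75). Primary screen of methionyl-tRNA synthetase; the read-out is not stated. The test concentration is not given. The values are filed as inhibition. Size under these conditions: about 68,000 compounds, about 24 of them at 50% or above in at least one test.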
Mtb heat-shock: 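Assay on Mycobacterium tuberculosis, filed only as a heat shock assay from Cornell; the read-out is not stated. The concentration is filed as 10 mM, unlikely as a test dose, so the dose is not known. Higher reads as stronger inhibition (inferred: compounds with an IC50 in retests scored well above the rest). Of about 69,000 compounds tested this way, about 930 (1.4%) reached 50% or more in at least one test.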

Results are percentages, as filed.
The record does not define 0% and 100%; most values in the screen are far below 50% and negative numbers occur (in some assays of this library far below -100).
Compounds were drawn at random from those tested, without regard to their results.
A dash means the value is not listed here; it may have been measured.

| # | compound | LdMetRS | Mtb heat-shock |
|---|---|---|---|
| 1 | `CCOc1ncccc1NC(=O)N1CCCCCC1` | 9.206% | 10.37% |
| 2 | `CC(=O)NC1CCCN(Cc2ccc(-n3ccnc3)cc2)C1` (stereo not drawn) | 16.62% | 15.79% |
| 3 | `CS(=O)(=O)c1ccc(OCCNCc2cccc(O)c2)cc1` | 12.77% | 8.43% |
| 4 | `Cn1cc(CN2CCC3(CCCN(Cc4ccccn4)C3)CC2)cn1` | 10.5% | -48.49% |
| 5 | `Cn1cc(CNS(=O)(=O)c2cc(F)ccc2F)cn1` | 5.263% | -16.61% |
| 6 | `CC(=O)N1CCN(C(=O)c2[nH]nnc2Nc2ccccc2F)CC1` | 21.53% | -2.156% |
| 7 | `Cc1nccn1C1CCCN(C(=O)c2ccc3cc[nH]c3c2)C1` (stereo not drawn) | 20.39% | -14.47% |
| 8 | `COc1ccc(CCN(C)C(=O)CN2C(=O)OC[C@@H]2C(C)C)cc1OC` | 12.47% | 18.22% |
| 9 | `CC(=O)c1cccc(S(=O)(=O)NCc2cccnc2N(C)C)c1` | 25.63% | -15.78% |
| 10 | `CCN(CCC#N)Cn1ncc2cn(-c3ccccc3)nc2c1=O` | 10.14% | -6.388% |
| 11 | `CC(c1ccc(-c2cnc(N)nc2)cc1)N1CCOCC1` (stereo not drawn) | 12.53% | -10.9% |
| 12 | `Cc1cnn(CC2CCCN2Cc2ncc(-c3ccc(F)cc3)o2)c1` (stereo not drawn) | 11.45% | -10.3% |
| 13 | `CN(C)C(=O)N1CCC(c2nc3ccc(N4CCCC4)cn3n2)CC1.O=C(O)C(F)(F)F` | - | -8.281% |
| 14 | `CCS(=O)(=O)c1ccccc1C(=O)N1CCCC(n2cccn2)C1` (stereo not drawn) | 10.24% | -17.5% |
| 15 | `CCc1c(C(=O)N2CCCN(C(C)=O)CC2)cnn1C(C)(C)C` | 9.449% | -12.57% |
| 16 | `Cc1nc(CN(C)CC2CCCN(CCc3ccc(Cl)cc3)C2)no1` (stereo not drawn) | 15.8% | -17.04% |
| 17 | `Cc1n[nH]c(C)c1C1CCCN1C(=O)NCC(=O)Nc1ccccc1` (stereo not drawn) | 12.13% | 4.295% |
| 18 | `[H][C@@]12COC[C@@H](CC(=O)N3CCCO3)[C@]1([H])CN(Cc1c(C)noc1C)C2` | - | -0.8374% |
| 19 | `CCCSc1ncc(Cl)c(C(=O)NC(CCSC)C(=O)O)n1` (stereo not drawn) | 3.514% | -8.85% |
| 20 | `O=C(O)C(F)(F)F.[H][C@]12CCCN(Cc3ccoc3)[C@@]1([H])CN(C(=O)c1ccco1)C2` | - | -14.63% |
| 21 | `Cc1cnn(C2CCCN(C(=O)c3ccc(-n4cnnn4)cc3)C2)c1` (stereo not drawn) | 12.22% | 7.25% |
| 22 | `Cc1cccc(CN2CCc3[nH]nc(C(=O)N4CCOCC4)c3C2)n1` | 6.159% | -0.7261% |
| 23 | `Cc1c(-c2cc(C(F)F)nc3sc(C(N)=O)c(N)c23)cnn1C` | 13.88% | -19.99% |
| 24 | `Cn1cc(CC2CCN(C(=O)NCCc3cccc(O)c3)C2)cn1` (stereo not drawn) | 10.56% | -9.012% |
| 25 | `O=C(O)C(F)(F)F.[H][C@]12CCN(c3cccnc3)C[C@@]1([H])CN(CC1CC1)C2` | - | -51.37% |
| 26 | `CN(C(=O)CN1CCCC1=O)C1CCCN(C2Cc3ccccc3C2)C1` (stereo not drawn) | 14.72% | -3.471% |
| 27 | `Cc1cccc(Oc2nccnc2C2CCN(C(=O)C(C)(C)N)CC2)c1` | 7.294% | -13.29% |
| 28 | `Cc1nc(C2CCCNC2)cc(N(Cc2nccn2C)C2CC2)n1` (stereo not drawn) | 1.083% | -43.28% |
| 29 | `COc1ccccc1Oc1ncccc1CNC(=O)CN1CCCC1=O` | 18.73% | 10.12% |
| 30 | `CC(C)(C)c1c[nH]c([C@@H]2COCCN2C2CCC2)n1` | 15.25% | -24.1% |
| 31 | `Cc1ccc(CNC2CCc3[nH]c(=O)ccc3C2)cc1C.O=C(O)C(F)(F)F` (stereo not drawn) | - | -33.52% |
| 32 | `CCn1cc(CN2CCCN(C(=O)C3(C)CCOCC3)CC2)cn1` | 11.87% | -5.17% |
| 33 | `C[C@@H]1CN(C2CCN(c3ccccc3F)CC2)C[C@]1(C)O` | 13.17% | 8.336% |
| 34 | `CCc1cc(NCCCN(C)C2CCCC2)ncn1` | 10.41% | -3.41% |
| 35 | `CCN(CC)C(=O)c1ccc(CNc2cncc(-n3cccn3)n2)cc1` | 19.32% | -40.18% |
| 36 | `Cc1nc(COCc2cnc3n2CCN(CC2CCC2)C3C)cs1` (stereo not drawn) | 18.83% | - |
| 37 | `Fc1cccnc1N1CCC(NCc2cccc3cn[nH]c23)C1` (stereo not drawn) | 5.292% | -17.54% |
| 38 | `Cc1nn(C)cc1C(=O)N1CCCn2nc(CN3CC[C@H](F)C3)cc2C1` | 13.24% | 12.17% |
| 39 | `CC(=O)N1[C@H](CN(C)C)C[C@@H]2CN(c3ncc(F)cn3)CC[C@@H]21` | 12.2% | - |
| 40 | `OCCN1CCCC(c2cccc(-c3ccccc3F)n2)C1` (stereo not drawn) | 3.488% | 1.941% |
| 41 | `CCSc1cc(C(=O)NC2CCN(C(=O)c3ccncc3)CC2)ccn1` | 15.23% | -32.44% |
| 42 | `COCCNC(=O)CCc1c(C)nn(-c2nc(C)c(C)c(=O)[nH]2)c1C` | 17.65% | 37.18% |
| 43 | `CN(C)CC(=O)N1CCc2sc(C(=O)N3CCN(C)CC3)cc21` | 16.42% | 17.23% |
| 44 | `Cc1cc(C(=O)N2CCCN(Cc3cnn(C)c3)CC2)no1` | 16.71% | 9.099% |
| 45 | `Cc1cccc(C(=O)N2CCC3(CC2)CC(c2cnn(C)c2)CO3)c1` (stereo not drawn) | 11.44% | -9.654% |
| 46 | `O=S(=O)(NCc1ccc(S(=O)(=O)N2CCCC2)s1)c1ccc(Cl)cc1` | 4.545% | 1.694% |
| 47 | `COc1ccc(C(C)N2CCC(CO)CC2)cc1Cl` (stereo not drawn) | 1.362% | 9.435% |
| 48 | `CNc1cc(C)nc(C2CCN(CCO)CC2)n1` | 16.46% | -3.64% |
| 49 | `Cc1nc(N2CCCC2)nc2c1CCN(C(=O)CN(C)C)CC2` | 13.49% | - |
| 50 | `O=C(O)C(F)(F)F.[H][C@]12C[C@H](C(=O)NCC3CC3)N(C(C)=O)[C@@]1([H])CN(Cc1nccs1)C2` | - | 4.534% |
| 51 | `Cc1cc(C)n(C2CN(c3nc(N)nc4c3CCCC4)C2)n1` | 7.666% | 3.604% |
| 52 | `O=C1NCCN(CC2CC2)C12CCN(Cc1ccccc1)CC2` | 0.6667% | - |
| 53 | `CCc1nc(CN(CC(N)=O)C(C)C)cs1` | 8.92% | 17.24% |
| 54 | `O=C(O)C(F)(F)F.[H][C@@]12CN(C(=O)c3ccccc3)CCO[C@]1([H])CN(c1cnccn1)C2` | - | -1.483% |
| 55 | `O=C(CN1CCCC1)Nc1c2c(cc3c1CCC3)CCC2` | 16.32% | - |

Some entries from above, unchanged:

CCCSc1ncc(Cl)c(C(=O)NC(CCSC)C(=O)O)n1 (stereo not drawn) read LdMetRS: 3.514%; Mtb heat-shock: -8.85%.
Cc1cccc(CN2CCc3[nH]nc(C(=O)N4CCOCC4)c3C2)n1 read LdMetRS: 6.159%; Mtb heat-shock: -0.7261%.
CN(C(=O)CN1CCCC1=O)C1CCCN(C2Cc3ccccc3C2)C1 (stereo not drawn) read LdMetRS: 14.72%; Mtb heat-shock: -3.471%.
O=S(=O)(NCc1ccc(S(=O)(=O)N2CCCC2)s1)c1ccc(Cl)cc1 read LdMetRS: 4.545%; Mtb heat-shock: 1.694%.
Cc1n[nH]c(C)c1C1CCCN1C(=O)NCC(=O)Nc1ccccc1 (stereo not drawn) read LdMetRS: 12.13%; Mtb heat-shock: 4.295%.

Measurements from “University of Dundee, Small-Polar-MMV Screening Library” (2021), ChEMBL document CHEMBL3988442.